From US20210047417A1

Assays:
[1] = molecular target: MICA*04 allele expressed on TRAMP-C2 cells (TC2-MICA-04); test: flow cytometry on TRAMP-C2 cells stably expressing MICA*04, 500 ng PDI-1 in 100 µl, PE anti-mouse IgG secondary
[2] = molecular target: Recombinant MICA*08 protein; test: ELISA, antigen coated, PDI-1 0-1 µg/ml (legend of FIG. 2)
[3] = molecular target: Recombinant MICA*09 protein; test: as above
[4] = molecular target: Recombinant MICA*02 protein; test: as above
[5] = molecular target: Recombinant MICA*01 protein (Homo sapiens (Human)); test: as above
[6] = molecular target: Recombinant MICA*04 protein; test: as above
[7] = molecular target: MICA*04 allele expressed on TRAMP-C2 cells (TC2-MICA-04); test: cell staining / flow cytometry (legend of FIG. 3)

binding [1]: binds
binding [2]: binds
binding [3]: binds
binding [4]: binds
binding [5]: binds
binding [6]: binds
binding [7]: binds
B1: Anti-MICA/B Monoclonal Antibody (PDI-1) (antibody, mouse IgG2a, kappa, V domains shown)
VH: QIQLVQSGPELKKSGETVKISCKAFGYTFTNYGMNWVKQAPGKGLKWMGWINTYTGEPTYADDFKGRFAFSLETSASTAYLQINHLKNEDTATYFCARNYGNYLFDYWGQGTTLTVSS
VL: DIQMTQTTSSLSASLGDRVTISCSASQGISNYLNWYQQKPDGTLKLLIQYTSLLHSGVPSRFSGSGSGTEYSLTISNLEPEDIATYFCQQYSKFPRTFGGGTKLEIKR

Results are given in words; binding and its absence hold for the method and conditions named. Binding can be weak; no strength is given.
